Sequences of proteins named here, by UniProt entry; tags and fusion partners are left off.
UniProt Q1MSJ5: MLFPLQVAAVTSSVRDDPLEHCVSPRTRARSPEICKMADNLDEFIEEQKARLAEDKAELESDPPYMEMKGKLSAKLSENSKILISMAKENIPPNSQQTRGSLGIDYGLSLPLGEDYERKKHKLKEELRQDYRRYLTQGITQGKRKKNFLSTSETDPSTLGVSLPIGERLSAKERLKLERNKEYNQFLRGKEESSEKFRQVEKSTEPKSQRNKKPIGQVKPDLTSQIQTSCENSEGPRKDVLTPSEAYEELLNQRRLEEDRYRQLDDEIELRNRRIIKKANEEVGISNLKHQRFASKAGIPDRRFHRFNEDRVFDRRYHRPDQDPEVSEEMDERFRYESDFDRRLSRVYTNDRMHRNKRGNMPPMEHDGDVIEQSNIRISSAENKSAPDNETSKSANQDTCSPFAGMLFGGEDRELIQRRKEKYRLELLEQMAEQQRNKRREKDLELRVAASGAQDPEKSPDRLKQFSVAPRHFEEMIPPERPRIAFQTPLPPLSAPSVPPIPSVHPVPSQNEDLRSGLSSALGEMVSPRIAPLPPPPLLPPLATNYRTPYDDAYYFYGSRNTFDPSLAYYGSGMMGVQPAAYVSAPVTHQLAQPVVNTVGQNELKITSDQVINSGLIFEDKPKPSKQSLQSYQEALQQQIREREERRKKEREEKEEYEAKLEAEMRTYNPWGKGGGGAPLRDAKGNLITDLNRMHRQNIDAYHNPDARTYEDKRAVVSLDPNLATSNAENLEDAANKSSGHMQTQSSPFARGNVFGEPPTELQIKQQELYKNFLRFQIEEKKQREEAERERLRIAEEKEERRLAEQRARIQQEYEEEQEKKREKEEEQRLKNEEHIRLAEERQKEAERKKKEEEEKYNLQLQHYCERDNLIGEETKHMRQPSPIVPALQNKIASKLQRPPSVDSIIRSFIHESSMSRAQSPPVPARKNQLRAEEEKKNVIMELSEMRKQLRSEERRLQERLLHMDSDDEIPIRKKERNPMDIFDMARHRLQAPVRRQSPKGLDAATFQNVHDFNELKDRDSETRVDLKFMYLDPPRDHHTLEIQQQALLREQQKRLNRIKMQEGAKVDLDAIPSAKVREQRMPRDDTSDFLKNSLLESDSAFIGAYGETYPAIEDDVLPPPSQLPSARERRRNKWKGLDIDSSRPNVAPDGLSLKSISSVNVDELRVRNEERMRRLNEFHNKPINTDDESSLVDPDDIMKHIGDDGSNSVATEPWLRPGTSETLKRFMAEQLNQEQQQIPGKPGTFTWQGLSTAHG
UniProt O15078: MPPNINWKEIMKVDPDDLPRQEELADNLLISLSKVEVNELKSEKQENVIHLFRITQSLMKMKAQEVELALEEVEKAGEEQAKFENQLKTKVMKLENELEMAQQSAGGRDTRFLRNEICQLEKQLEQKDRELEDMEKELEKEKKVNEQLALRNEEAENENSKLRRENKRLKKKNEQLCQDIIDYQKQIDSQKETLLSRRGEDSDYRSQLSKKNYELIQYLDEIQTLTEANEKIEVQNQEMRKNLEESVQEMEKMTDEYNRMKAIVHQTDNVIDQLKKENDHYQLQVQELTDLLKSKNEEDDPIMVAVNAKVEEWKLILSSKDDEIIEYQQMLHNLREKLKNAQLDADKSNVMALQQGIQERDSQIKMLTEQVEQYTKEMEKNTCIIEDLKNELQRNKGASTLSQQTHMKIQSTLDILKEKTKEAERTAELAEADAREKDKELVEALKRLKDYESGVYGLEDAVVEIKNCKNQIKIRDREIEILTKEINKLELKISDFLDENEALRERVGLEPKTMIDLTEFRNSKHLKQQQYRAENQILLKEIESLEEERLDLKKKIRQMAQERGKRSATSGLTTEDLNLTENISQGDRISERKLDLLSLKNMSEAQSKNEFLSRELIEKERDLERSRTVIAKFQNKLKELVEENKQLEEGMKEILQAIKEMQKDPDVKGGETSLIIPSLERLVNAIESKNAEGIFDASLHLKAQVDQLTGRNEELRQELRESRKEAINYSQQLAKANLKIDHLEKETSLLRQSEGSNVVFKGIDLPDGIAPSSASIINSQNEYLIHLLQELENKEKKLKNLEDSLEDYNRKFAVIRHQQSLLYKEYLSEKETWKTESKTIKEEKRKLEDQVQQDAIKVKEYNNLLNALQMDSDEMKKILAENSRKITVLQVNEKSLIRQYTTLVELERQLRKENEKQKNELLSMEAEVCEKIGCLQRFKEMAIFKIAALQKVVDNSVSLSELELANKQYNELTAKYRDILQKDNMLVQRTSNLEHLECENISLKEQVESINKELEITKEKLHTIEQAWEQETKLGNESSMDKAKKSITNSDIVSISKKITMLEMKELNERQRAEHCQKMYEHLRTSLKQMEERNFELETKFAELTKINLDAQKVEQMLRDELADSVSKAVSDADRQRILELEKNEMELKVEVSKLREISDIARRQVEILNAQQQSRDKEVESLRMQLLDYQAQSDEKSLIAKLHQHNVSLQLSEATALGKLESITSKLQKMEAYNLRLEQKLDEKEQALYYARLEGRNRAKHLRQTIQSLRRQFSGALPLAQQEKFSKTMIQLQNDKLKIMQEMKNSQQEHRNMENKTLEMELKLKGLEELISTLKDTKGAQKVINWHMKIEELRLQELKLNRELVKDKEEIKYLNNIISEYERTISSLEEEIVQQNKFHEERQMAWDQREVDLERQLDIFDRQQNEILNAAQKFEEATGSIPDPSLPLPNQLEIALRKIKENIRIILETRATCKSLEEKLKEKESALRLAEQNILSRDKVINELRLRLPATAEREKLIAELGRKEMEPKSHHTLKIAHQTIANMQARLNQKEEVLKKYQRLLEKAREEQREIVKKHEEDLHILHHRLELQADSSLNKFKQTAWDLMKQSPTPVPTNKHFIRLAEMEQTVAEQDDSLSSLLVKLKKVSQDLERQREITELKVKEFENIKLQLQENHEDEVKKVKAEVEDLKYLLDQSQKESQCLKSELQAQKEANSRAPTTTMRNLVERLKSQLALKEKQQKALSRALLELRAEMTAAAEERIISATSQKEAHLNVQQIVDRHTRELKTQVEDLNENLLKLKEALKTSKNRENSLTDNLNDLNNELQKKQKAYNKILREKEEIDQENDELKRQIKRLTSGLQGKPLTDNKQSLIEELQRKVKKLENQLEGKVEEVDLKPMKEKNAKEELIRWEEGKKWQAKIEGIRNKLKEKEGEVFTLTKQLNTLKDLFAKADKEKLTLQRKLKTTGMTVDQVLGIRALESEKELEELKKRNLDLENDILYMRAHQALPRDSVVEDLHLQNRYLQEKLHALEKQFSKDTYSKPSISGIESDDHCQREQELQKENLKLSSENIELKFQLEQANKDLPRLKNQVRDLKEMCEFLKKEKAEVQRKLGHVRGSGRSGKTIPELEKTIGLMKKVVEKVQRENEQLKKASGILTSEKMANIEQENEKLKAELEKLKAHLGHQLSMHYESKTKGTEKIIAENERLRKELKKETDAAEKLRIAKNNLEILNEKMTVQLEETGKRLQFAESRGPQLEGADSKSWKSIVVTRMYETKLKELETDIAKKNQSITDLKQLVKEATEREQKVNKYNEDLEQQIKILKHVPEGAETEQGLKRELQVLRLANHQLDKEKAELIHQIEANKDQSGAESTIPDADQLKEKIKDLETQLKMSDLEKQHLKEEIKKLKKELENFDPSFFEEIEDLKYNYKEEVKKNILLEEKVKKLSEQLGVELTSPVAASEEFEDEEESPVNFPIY
UniProt P63167: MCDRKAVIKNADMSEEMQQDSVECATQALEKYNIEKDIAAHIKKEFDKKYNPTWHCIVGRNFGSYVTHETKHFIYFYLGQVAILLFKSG
UniProt Q68CZ1: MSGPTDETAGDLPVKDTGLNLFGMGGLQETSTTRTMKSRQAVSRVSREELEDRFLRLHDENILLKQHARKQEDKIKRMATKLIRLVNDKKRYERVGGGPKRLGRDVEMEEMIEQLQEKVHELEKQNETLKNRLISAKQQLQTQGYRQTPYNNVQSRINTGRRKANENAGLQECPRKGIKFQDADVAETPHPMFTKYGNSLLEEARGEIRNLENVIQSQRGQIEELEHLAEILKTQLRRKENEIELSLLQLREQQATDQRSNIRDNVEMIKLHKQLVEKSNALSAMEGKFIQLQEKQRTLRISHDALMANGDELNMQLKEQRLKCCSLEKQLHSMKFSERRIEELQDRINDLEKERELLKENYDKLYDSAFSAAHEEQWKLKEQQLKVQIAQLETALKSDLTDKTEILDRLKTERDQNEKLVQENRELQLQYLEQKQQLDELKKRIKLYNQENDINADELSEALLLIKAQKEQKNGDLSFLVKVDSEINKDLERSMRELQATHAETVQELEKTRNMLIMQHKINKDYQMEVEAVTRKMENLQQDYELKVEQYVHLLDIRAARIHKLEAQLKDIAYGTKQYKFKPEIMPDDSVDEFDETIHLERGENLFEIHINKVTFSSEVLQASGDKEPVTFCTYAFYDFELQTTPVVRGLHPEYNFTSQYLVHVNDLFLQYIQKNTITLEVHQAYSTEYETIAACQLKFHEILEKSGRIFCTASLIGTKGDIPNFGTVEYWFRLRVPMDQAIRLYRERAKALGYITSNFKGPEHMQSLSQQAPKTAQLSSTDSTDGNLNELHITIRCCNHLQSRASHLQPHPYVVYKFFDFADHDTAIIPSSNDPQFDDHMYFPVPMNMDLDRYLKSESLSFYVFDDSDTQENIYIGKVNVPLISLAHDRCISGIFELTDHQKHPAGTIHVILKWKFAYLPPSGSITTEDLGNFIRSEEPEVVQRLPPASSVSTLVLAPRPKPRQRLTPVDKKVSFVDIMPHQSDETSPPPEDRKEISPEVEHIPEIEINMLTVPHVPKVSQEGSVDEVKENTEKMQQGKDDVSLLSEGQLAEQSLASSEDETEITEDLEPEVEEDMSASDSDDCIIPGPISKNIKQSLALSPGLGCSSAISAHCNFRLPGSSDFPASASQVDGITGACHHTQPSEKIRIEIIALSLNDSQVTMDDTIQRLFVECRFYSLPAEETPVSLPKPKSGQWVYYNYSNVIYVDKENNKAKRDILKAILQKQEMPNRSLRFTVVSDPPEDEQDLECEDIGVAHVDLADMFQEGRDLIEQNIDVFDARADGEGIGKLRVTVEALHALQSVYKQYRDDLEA

According to paper doi:10.1101/817213:

T1: SF-TAP tagged CCDC66 (UniProt A2RUB6)
T1 sequence: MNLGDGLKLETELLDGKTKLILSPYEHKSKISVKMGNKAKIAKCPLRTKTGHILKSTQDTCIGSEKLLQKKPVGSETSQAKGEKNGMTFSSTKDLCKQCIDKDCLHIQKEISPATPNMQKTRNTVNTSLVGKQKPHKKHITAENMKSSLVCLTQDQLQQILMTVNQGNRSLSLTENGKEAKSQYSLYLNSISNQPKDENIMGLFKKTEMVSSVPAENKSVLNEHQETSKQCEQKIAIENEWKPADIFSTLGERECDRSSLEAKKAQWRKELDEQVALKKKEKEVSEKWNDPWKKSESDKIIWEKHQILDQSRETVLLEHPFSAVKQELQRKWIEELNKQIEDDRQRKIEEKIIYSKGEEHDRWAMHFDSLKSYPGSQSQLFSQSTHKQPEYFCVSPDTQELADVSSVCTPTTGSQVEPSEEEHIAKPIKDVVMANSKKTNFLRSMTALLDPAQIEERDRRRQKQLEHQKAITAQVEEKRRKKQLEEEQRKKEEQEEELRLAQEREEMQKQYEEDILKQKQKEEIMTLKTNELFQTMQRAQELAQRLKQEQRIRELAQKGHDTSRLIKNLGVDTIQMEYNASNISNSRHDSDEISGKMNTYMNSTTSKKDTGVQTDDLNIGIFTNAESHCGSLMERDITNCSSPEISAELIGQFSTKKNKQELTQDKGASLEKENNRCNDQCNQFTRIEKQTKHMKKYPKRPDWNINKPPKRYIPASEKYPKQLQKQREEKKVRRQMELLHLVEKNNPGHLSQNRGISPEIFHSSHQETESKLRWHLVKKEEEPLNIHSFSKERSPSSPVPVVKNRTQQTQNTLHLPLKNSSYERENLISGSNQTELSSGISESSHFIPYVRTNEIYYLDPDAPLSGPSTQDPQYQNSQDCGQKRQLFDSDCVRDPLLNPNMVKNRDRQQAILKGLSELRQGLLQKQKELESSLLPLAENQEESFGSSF


Columns and labels:
Experiment in all cases: affinity purification with mass spectrometry
[1] = biological target: SF-TAP tagged CSPP1 (TAP bait) (UniProt Q1MSJ5)
SF-TAP tagged CCDC66 = biological target: T1, SF-TAP tagged CCDC66
[2] = biological target: N-terminally SF-TAP tagged TOGARAM1 (human)

Molecule	binding [1]	binding (SF-TAP tagged CCDC66)	binding [2]
endogenous CEP290 (HEK293T) (from UniProt O15078 1-2479)	binds	–	–
endogenous DYNLL1 (HEK293T) (from UniProt P63167 1-89)	–	binds	–
endogenous RPGRIP1L (HEK293T) (from UniProt Q68CZ1 1-1315)	binds	–	–
endogenous ARMC9 (HEK293T) (protein, UniProt Q7Z3E5 1-818) MGDILAHESELLGLVKEYLDFAEFEDTLKTFSKECKIKGKPLCKTVGGSFRDSKSLTIQKDLVAAFDNGDQKVFFDLWEEHISSSIRDGDSFAQKLEFYLHIHFAIYLLKYSVGRPDKEELDEKISYFKTYLETKGAALSQTTEFLPFYALPFVPNPMVHPSFKELFQDSWTPELKLKLIKFLALISKASNTPKLLTIYKENGQSNKEILQQLHQQLVEAERRSVTYLKRYNKIQADYHNLIGVTAELVDSLEATVSGKMITPEYLQSVCVRLFSNQMRQSLAHSVDFTRPGTASTMLRASLAPVKLKDVPLLPSLDYEKLKKDLILGSDRLKAFLLQALRWRLTTSHPGEQRETVLQAYISNDLLDCYSHNQRSVLQLLHSTSDVVRQYMARLINAFASLAEGRLYLAQNTKVLQMLEGRLKEEDKDIITRENVLGALQKFSLRRPLQTAMIQDGLIFWLVDVLKDPDCLSDYTLEYSVALLMNLCLRSTGKNMCAKVAGLVLKVLSDLLGHENHEIQPYVNGALYSILSVPSIREEARAMGMEDILRCFIKEGNAEMIRQIEFIIKQLNSEELPDGVLESDDDEDEDDEEDHDIMEADLDKDELIQPQLGELSGEKLLTTEYLGIMTNTGKTRRKGLANVQWSGDEPLQRPVTPGGHRNGYPVVEDQHTPPQTAQHARNGHPQALPAAHEAVYREGKPSTPESCVSSSSAIIAKPGEWLPRGRQEEPRPAPTGTPRQPREAPQDPGNGVTTRECASAFTCKPRAPCTPEMLDWNPPKAKASVLAPLFSSCGPQQASRPGSTASSTRGLPSSQSHRK	–	binds	binds
endogenous CEP104 (HEK293T) (protein, UniProt O60308 1-925) MPHKIGFVVVSSSGHEDGFSARELMIHAPTVSGWRSPRFCQFPQEIVLQMVERCRIRKLQLLAHQYMISSKIEFYISESLPEYFAPYQAERFRRLGYVSLCDNEKTGCKARELKSVYVDAVGQFLKLIFHQNHVNKYNIYNQVALVAINIIGDPADFSDESNTASREKLIDHYLGHNSEDPALEGTYARKSDYISPLDDLAFDMYQDPEVAQIIRKLDERKREAVQKERYDYAKKLKQAIADLQKVGERLGRYEVEKRCAVEKEDYDLAKEKKQQMEQYRAEVYEQLELHSLLDAELMRRPFDLPLQPLARSGSPCHQKPMPSLPQLEERGTENQFAEPFLQEKPSSYSLTISPQHSAVDPLLPATDPHPKINAESLPYDERPLPAIRKHYGEAVVEPEMSNADISDARRGGMLGEPEPLTEKALREASSAIDVLGETLVAEAYCKTWSYREDALLALSKKLMEMPVGTPKEDLKNTLRASVFLVRRAIKDIVTSVFQASLKLLKMIITQYIPKHKLSKLETAHCVERTIPVLLTRTGDSSARLRVTAANFIQEMALFKEVKSLQIIPSYLVQPLKANSSVHLAMSQMGLLARLLKDLGTGSSGFTIDNVMKFSVSALEHRVYEVRETAVRIILDMYRQHQASILEYLPPDDSNTRRNILYKTIFEGFAKIDGRATDAEMRARRKAATEEAEKQKKEEIKALQGQLAALKEIQAEVQEKESDAVKPKNQDIQGGKAAPAEALGIPDEHYLDNLCIFCGERSESFTEEGLDLHYWKHCLMLTRCDHCKQVVEISSLTEHLLTECDKKDGFGKCYRCSEAVFKEELPRHIKHKDCNPAKPEKLANRCPLCHENFSPGEEAWKAHLMGPAGCTMNLRKTHILQKAPALQPGKSSAVAASGPLGSKAGSKIPTPKGGLSKSSSRTYAKR	–	–	binds
endogenous IFT74 (HEK293T) (protein, UniProt Q96LB3 1-600) MASNHKSSAARPVSRGGVGLTGRPPSGIRPLSGNIRVATAMPPGTARPGSRGCPIGTGGVLSSQIKVAHRPVTQQGLTGMKTGTKGPQRQILDKSYYLGLLRSKISELTTEVNKLQKGIEMYNQENSVYLSYEKRAETLAVEIKELQGQLADYNMLVDKLNTNTEMEEVMNDYNMLKAQNDRETQSLDVIFTERQAKEKQIRSVEEEIEQEKQATDDIIKNMSFENQVKYLEMKTTNEKLLQELDTLQQQLDSQNMKKESLEAEIAHSQVKQEAVLLHEKLYELESHRDQMIAEDKSIGSPMEEREKLLKQIKDDNQEIASMERQLTDTKEKINQFIEEIRQLDMDLEEHQGEMNQKYKELKKREEHMDTFIETFEETKNQELKRKAQIEANIVALLEHCSRNINRIEQISSITNQELKMMQDDLNFKSTEVQKSQSTAQNLTSDIQRLQLDLQKMELLESKMTEEQHSLKSKIKQMTTDLEIYNDLPALKSSGEEKIKKLHQERMILSTHRNAFKKIMEKQNIEYEALKTQLQENETHSQLTNLERKWQHLEQNNFAMKEFIATKSQESDYQPIKKNVTKQIAEYNKTIVDALHSTSGN	–	–	binds

Results are given in words; binding and its absence hold for the method and conditions named. Binding seen in cells or lysates may run through a third protein. These calls come from enrichment with a bait or labelling near it, and not all partners need be listed. For some of these results: Tags and fused reporters may be left off the sequences shown.
